Test results taken from publication PMC10095973.

The chains behind the UniProt entries cited, without tags or fusion partners. Where a name states a change or a piece, a line headed by the entry shows the natural chain unless it says otherwise.
UniProt Q9SJ89: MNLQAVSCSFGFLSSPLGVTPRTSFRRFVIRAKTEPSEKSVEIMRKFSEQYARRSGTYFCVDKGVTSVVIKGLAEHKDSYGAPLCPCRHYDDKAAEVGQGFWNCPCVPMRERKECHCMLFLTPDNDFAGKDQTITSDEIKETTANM
UniProt O04090: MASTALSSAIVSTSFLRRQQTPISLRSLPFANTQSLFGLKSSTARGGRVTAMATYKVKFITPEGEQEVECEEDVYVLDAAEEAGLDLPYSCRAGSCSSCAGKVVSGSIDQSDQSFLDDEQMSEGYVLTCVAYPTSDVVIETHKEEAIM
UniProt Q8LBP6: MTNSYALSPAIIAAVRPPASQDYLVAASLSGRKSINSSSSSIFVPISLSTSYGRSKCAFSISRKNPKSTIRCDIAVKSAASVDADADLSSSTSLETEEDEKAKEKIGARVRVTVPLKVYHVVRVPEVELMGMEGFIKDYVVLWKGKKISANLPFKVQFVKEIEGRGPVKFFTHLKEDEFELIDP

Target: T1, Arabidopsis thaliana purple acid phosphatase 2 (BiFC fusion) (Arabidopsis thaliana) (UniProt Q9LMG7)
T1 sequence: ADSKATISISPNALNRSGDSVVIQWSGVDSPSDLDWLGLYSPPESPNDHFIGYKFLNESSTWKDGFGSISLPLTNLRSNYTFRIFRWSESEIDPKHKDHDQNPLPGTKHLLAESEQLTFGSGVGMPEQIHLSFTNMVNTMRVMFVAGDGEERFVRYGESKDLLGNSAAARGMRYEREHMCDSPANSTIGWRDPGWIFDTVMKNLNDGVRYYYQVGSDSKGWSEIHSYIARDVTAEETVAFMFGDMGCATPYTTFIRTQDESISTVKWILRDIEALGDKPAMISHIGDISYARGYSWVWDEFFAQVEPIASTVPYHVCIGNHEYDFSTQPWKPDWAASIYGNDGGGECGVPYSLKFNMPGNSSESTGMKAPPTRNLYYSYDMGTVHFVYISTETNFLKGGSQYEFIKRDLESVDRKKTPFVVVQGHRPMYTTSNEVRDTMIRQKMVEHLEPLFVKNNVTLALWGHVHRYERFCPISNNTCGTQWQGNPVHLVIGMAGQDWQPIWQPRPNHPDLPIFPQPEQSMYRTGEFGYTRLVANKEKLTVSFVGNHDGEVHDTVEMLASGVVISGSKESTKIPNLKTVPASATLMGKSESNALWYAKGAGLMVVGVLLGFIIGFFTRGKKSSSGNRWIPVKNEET
Assay: split reporter; in vivo bimolecular fluorescence complementation (BiFC); host not stated

binding	Substance
binds	FTRB (BiFC fusion) (from UniProt Q9SJ89)
binds	Fd1 (BiFC fusion) (from UniProt O04090)
binds	ferredoxin/thioredoxin reductase subunit A2 (BiFC fusion) (from UniProt Q8LBP6)

Results are given in words; binding and its absence hold for the method and conditions named. Binding seen in cells or lysates may run through a third protein. Binding calls can cover weak binding; strength is not graded here. Where a sequence is shown, tags or fusion partners need not be part of it.
